Measurements from “University of Dundee, Small-Polar-MMV Screening Library” (2021), ChEMBL document CHEMBL3988442.

Chains of the proteins cited; added tags and fusions are not shown. Residues count along the entry.
UniProt Q8IDJ8, 1-583: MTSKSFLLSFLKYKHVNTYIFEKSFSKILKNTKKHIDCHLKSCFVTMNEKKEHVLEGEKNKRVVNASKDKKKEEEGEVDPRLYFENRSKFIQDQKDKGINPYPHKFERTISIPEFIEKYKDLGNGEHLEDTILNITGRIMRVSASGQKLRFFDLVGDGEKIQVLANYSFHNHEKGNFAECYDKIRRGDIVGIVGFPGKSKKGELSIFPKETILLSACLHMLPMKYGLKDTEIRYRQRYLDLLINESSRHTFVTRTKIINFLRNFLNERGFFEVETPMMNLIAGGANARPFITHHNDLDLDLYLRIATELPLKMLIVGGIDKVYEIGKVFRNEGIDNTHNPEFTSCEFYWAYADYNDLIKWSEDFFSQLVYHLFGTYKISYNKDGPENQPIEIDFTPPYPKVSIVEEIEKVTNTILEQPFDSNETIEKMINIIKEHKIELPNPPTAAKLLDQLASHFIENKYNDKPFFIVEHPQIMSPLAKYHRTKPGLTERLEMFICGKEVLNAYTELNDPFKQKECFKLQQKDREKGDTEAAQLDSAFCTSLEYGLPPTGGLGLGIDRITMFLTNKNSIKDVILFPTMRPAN
UniProt Q4DA54, 1-478: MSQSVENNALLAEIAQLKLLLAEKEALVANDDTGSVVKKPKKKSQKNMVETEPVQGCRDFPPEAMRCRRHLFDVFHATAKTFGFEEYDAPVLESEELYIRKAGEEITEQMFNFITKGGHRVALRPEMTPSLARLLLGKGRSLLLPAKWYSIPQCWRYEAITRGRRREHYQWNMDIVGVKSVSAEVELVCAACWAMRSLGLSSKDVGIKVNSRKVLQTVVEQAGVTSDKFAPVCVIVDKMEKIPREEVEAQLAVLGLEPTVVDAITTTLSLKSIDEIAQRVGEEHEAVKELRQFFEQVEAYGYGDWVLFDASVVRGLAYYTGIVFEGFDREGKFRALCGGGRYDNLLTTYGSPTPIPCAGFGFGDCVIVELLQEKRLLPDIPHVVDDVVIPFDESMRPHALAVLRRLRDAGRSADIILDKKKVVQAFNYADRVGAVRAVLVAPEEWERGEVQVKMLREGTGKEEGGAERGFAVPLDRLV
UniProt I6X8D2, whole entry: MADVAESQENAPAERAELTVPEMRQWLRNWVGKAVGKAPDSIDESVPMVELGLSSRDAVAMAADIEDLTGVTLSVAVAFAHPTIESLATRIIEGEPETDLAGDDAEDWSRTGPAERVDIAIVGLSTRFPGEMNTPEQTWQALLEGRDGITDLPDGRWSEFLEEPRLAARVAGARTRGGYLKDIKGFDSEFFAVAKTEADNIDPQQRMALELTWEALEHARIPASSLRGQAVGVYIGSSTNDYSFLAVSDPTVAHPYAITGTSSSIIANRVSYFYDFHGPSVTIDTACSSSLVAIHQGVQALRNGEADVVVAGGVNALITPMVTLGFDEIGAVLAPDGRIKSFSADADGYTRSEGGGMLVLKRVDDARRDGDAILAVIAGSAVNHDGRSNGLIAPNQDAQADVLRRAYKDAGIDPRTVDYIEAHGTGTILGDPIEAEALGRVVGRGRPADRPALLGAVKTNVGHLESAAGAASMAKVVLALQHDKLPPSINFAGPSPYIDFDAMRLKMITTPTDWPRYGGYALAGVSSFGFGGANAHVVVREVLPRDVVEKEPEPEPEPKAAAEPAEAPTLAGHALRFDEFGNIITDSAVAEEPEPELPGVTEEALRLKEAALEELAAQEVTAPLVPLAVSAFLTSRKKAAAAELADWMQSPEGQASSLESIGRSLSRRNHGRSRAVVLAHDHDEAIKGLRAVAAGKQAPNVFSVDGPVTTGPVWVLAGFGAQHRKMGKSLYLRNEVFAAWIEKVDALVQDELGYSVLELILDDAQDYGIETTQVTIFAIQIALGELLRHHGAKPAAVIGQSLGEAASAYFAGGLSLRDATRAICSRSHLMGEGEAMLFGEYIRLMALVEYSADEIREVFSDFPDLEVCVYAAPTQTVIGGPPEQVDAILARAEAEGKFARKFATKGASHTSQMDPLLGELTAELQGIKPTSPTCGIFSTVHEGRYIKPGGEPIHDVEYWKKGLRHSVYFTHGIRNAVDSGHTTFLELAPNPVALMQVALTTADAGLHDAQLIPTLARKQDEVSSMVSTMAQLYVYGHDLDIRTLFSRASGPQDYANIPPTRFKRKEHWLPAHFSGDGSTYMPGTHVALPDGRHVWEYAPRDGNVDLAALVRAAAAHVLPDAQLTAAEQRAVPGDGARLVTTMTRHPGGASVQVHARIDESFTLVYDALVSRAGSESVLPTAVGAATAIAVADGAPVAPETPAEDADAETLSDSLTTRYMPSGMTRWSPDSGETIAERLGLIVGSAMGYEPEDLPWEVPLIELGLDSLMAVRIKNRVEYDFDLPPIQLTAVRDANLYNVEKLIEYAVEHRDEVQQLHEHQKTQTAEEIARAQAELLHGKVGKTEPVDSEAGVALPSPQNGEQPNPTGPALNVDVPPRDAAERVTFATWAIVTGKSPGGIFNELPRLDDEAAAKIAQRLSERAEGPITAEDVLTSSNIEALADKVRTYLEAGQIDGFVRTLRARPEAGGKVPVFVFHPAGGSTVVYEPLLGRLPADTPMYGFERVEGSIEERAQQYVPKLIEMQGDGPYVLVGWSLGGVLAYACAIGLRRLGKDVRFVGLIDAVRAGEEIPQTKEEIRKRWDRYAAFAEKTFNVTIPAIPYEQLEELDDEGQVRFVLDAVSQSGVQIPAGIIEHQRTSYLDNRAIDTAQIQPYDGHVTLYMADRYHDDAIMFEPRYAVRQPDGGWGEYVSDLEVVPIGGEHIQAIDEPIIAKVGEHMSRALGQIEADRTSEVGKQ

Results are given as percent effect. The controls that fix the scale are not given in the record; negative values are as filed. Compounds were drawn at random from those tested, without regard to their results. A dash means the value is not listed here; it may have been measured.

A: 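Lysine-tRNA ligase, Plasmodium falciparum 3D7 (UniProt Q8IDJ8). Enzyme assay of the cytosolic lysyl-tRNA synthetase in 384-well plates, read by luminescence. Concentration: 30 µM. Direction is inferred from only a few compounds that gave an IC50; most scored high, so higher reads as stronger inhibition. Size under these conditions: about 69,000 compounds, about 49 of them at 50% or above in at least one test.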
B: 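Histidine-tRNA ligase, Trypanosoma cruzi CL Brener (UniProt Q4DA54). Enzyme assay of histidyl-tRNA synthetase; the read-out is not stated. Concentration: 30 µM. Higher reads as stronger inhibition (inferred: compounds with an IC50 in retests scored well above the rest). Size under these conditions: about 69,000 compounds, about 31 of them at 50% or above in at least one test.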
C: 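Cell assay of Leishmania donovani living inside macrophages; the read-out is not stated. Tested at 30 µM. The record gives no direction; compounds that gave an IC50 in retests scored well above the rest, so higher reads as stronger inhibition. Size under these conditions: about 69,000 compounds, about 1,000 of them at 50% or above in at least one test.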
D: 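Enzyme assay of the thioesterase domain of polyketide synthase 13; the read-out is not stated. Target: Polyketide synthase Pks13, Mycobacterium tuberculosis (UniProt I6X8D2). Compounds at 30 µM. The record gives no direction; the compounds picked for IC50 retests had high values, so higher reads as stronger inhibition. Size under these conditions: about 67,000 compounds, about 300 of them at 50% or above in at least one test.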

* O[C@@H]1CN(c2nc3ccccc3o2)CC[C@H]1c1ccc2c(c1)OCO2 | A: -4.085%; B: 8%; C: 2.411%; D: -1.69%
* Cc1ccc(OCC(=O)Nc2ccc(S(C)(=O)=O)cc2)cc1C | A: 3.143%; B: 6.077%; C: -27.76%; D: -4.36%
* CNc1ncc(CN(C)C(=O)c2ccccc2C2CCNC2)cn1 (stereo unspecified) | A: 0.2892%; B: 3.352%; C: -3.65%; D: 6.646%
* c1cnc(N2CCOCC3(CCCN(CC4CCOCC4)C3)C2)nc1 (stereo unspecified) | A: -2.708%; B: 5.882%; D: -21.33%
* COC(=O)[C@H]1C[C@@H](O)CCN1S(=O)(=O)c1ccc(F)cc1F | A: 5.236%; B: 10.84%; C: -9.904%; D: 0.392%
* CC(C)NC1CC2(CCNCC2)c2cc(F)ccc21 (stereo unspecified) | A: -1.643%; B: 4.301%; D: -50.49%
* O=C([C@@H]1C[C@@H]2CCN(C3CCOCC3)C[C@@H]2O1)N1CCOCC1 | A: 7.246%; B: 5.607%; D: -16.33%
* CNC(=O)C1(CCCc2ccccn2)CN(Cc2coc(C)n2)C1 | A: -0.7439%; B: 3.876%; C: 9.486%; D: -20.04%
* c1cn(Cc2nnc(C3CCN(c4nccs4)CC3)n2C2CC2)cn1 | A: 2.113%; B: 2.905%; C: 17.56%; D: -12.69%
* Cc1cccc(CNc2cc(C3CCCNC3)ccn2)n1 (stereo unspecified) | A: 0.4841%; B: 10.34%; D: 1.729%
* O=C(NCC1CCCO1)Nc1nnc(C(F)(F)F)s1 (stereo unspecified) | A: -0.1664%; B: 3.483%; C: -9.431%; D: 2.75%
* Cc1nn(C)c(C)c1C1CCCN1Cc1nc(-c2ccco2)oc1C (stereo unspecified) | A: 1.794%; B: -0.3831%; C: 16.3%; D: 1.44%
* Cc1nn(CC(=O)N2CCN(c3ncccn3)CC2)c(C)c1Cl | A: -1.673%; B: -1.667%; C: -43.53%; D: -3.849%
* COc1cccc([C@H]2CN(C(=O)c3ccccc3)[C@@H]3CCCN[C@H]23)c1 | A: 0.8509%; B: 2.281%; D: -24.58%
* Cn1cc(CN2CC[C@H]3OCC[C@@H](C(=O)Nc4cnccn4)[C@@H]3C2)cn1 | A: -1.271%; B: -1.22%; D: 32.55%
* [H][C@]12CC[C@]([H])(CN(C(=O)Cc3c(C)nc(CC)[nH]c3=O)C1)N(CCC)C2 | C: 12.3%
* COCc1nnc(C(=O)N(C)Cc2cnc3ccccn23)o1 | A: 7.484%; B: 11.11%; C: 3.481%; D: -9.977%
* [H][C@@]12CCC(=O)N(c3ccccc3)[C@]1([H])CCN2C(=O)C1CCOCC1 | C: 11.54%
* COCCN1CCC12CCN(C(=O)c1ccc(C)nc1)C2.O=C(O)C(F)(F)F (stereo unspecified) | C: 17.49%
* Cc1ccc(N2CCCC3(CCCC(=O)N3)C2)nn1.O=C(O)C(F)(F)F (stereo unspecified) | C: 22.89%
* CC(C)(C)c1nnc(CN2CCCC(c3cc(C(N)=O)[nH]n3)C2)o1 (stereo unspecified) | A: 1.854%; B: 3.008%; C: 6.216%; D: -13.54%
* CCOCC1CN(Cc2cnn(C)c2)Cc2nn(CC3CC3)cc21.O=C(O)C(F)(F)F (stereo unspecified) | C: 21.36%
* Cc1cc(C)n(CCC(=O)N2CCC(Nc3cccnn3)CC2)n1 | A: 1.081%; B: 2.941%; C: 4.969%; D: -15.79%
* CN(C)c1ncc(-c2ccc(F)cc2)c(C2CNCCO2)n1.Cl (stereo unspecified) | C: 5.193%
* COc1cc(OC)cc(C(=O)N(C)Cc2nnc3ccccn23)c1 | A: 1.436%; B: 4.373%; C: 19.23%; D: -14.7%
* Cc1cc(C(F)(F)F)cc(N2CCN(Cc3ccccc3)CC(O)C2)n1 (stereo unspecified) | A: 8.291%; B: 1.02%; C: -7.451%; D: -10.36%
* [H][C@]12CN(CCOC)C(=O)[C@@]1([H])CN(S(=O)(=O)c1cccs1)C2 | C: -3.478%
* Cn1c(N)c2c(=O)n(C)c(-c3ccccc3)cc2c(C#N)c1=O | A: 4.047%; B: 7.216%; C: 31.09%; D: -3.231%
* CCN(CC)C(=O)CSc1nc2cc(C)nc-2c(O)n1Cc1ccco1 | A: 4.696%; B: 4.911%; C: 25%; D: -55.68%
* CS(=O)(=O)NCC(=O)NC1(c2ccc(Cl)c(Cl)c2)CC1 | A: 7.053%; B: 3.665%; C: -5.993%; D: -22.53%
* CN(c1ncc(C(=O)NCc2ccccc2)c(N)n1)C1CCCCC1 | A: -2.874%; B: 0.4878%; C: -36.59%; D: -31.76%

The first 4 entries again:

| SMILES | A | B | C | D |
|---|---|---|---|---|
| `O[C@@H]1CN(c2nc3ccccc3o2)CC[C@H]1c1ccc2c(c1)OCO2` | -4.085% | 8% | 2.411% | -1.69% |
| `Cc1ccc(OCC(=O)Nc2ccc(S(C)(=O)=O)cc2)cc1C` | 3.143% | 6.077% | -27.76% | -4.36% |
| `CNc1ncc(CN(C)C(=O)c2ccccc2C2CCNC2)cn1` (stereo unspecified) | 0.2892% | 3.352% | -3.65% | 6.646% |
| `c1cnc(N2CCOCC3(CCCN(CC4CCOCC4)C3)C2)nc1` (stereo unspecified) | -2.708% | 5.882% | - | -21.33% |